This passage reports survivor count and T/C results from PubChem BioAssay AID256 (DTP/NCI, 2004).

The list shows only some results of the screen, not a fair sample: it gathers tests that were run many times, whatever their T/C, doses with no T/C, and many T/C values between a quarter and a half above the control. Further doses and runs are listed elsewhere. T/C is the treated group as % of the vehicle group. Some entries give survivors of the animals treated and no T/C: the source files T/C as zero there, which appears to mark a toxic dose or a test without result, not a measured value. Some survivor counts are full or nearly so, which does not show that the dose was tolerated: survival well below the control is almost never listed, so the zero probably covers shortened survival too. Counts of survivors are from the toxicity check (mostly the fifth day) where no day follows; animals may have died later. Schedules are NCI's codes, read here as Q, the interval in days (D) or hours (H), X, the number of doses. Some doses were run more than once; their values stand side by side, smallest first. Brackets with × say how often a value occurs here. Some structures stand for samples that the source files as different forms (salt, stereo form or complex); doses refer to the form tested. Where survival is the endpoint, this PubChem deposit counts one and a half times the control or more as active, and values a quarter to a half above the control carry no call in these data; other NCI protocols may use other cut-offs. Some T/C values are followed by the survivors on the day toxicity was checked, most often the fifth; where none is given, no animal had died by that day.

In the assay the test system is CD2F1 mice, L1210 leukemia ip, survival T/C. The assay is described as follows: NCI In Vivo Anticancer Drug Screen. Data for tumor model L1210 Leukemia (intraperitoneal) in CD2F1 (CDF1) mice. As to conditions: higher T/C = longer survival. The protocol:
The antitumor activity of compounds was measured in mice bearing transplantable tumors. Survival or tumor size were measured and the results are expressed as the measurement made in the treated group (T) divided by the measurement made in the vehicle treated control group (C). The tumor model used in this assay is L1210 Leukemia (intraperitoneal) in CD2F1 (CDF1) mice

[1] abbreviates: T/C endpoint: mean survival time, dose: 400.0 mg/kg/injection, schedule: Q04DX003 (ip), vehicle: saline with Tween-80.
[2] abbreviates: T/C endpoint: mean survival time, dose: 50.0 mg/kg/injection, schedule: Q01DX009 (ip), vehicle: saline with Tween-80.
The mark [3] stands for this setting: T/C endpoint: mean survival time, dose: 100.0 mg/kg/injection, schedule: Q01DX009 (ip), vehicle: saline with Tween-80.
The mark [4] stands for this setting: T/C endpoint: mean survival time, dose: 200.0 mg/kg/injection, schedule: Q01DX009 (ip), vehicle: saline with Tween-80.
[5] abbreviates: T/C endpoint: median survival time, dose: 6.4 mg/kg/injection, schedule: Q04DX003 (ip), vehicle: water.
The mark [6] stands for this setting: T/C endpoint: mean survival time, dose: 400.0 mg/kg/injection, schedule: Q04DX003 (ip), vehicle: saline.

On to `O=C(CSC1=NCCN1)c1ccc([N+](=O)[O-])cc1`, for which the survivor count by setting is: (T/C endpoint: mean survival time, dose: 100.0 mg/kg/injection, schedule: Q04DX003 (ip), vehicle: saline with Tween-80) 6 of 6; (T/C endpoint: mean survival time, dose: 200.0 mg/kg/injection, schedule: Q04DX003 (ip), vehicle: saline with Tween-80) 0 of 6; under setting [1], 0 of 6.
On to `O=C(Nc1ccc(C2=NCCN2)cc1)c1ccc(C(=O)Nc2ccc(C3=NCCN3)cc2)c(Cl)c1`, for which the T/C is 103, 106, 116 % of control (2×) (T/C endpoint: mean survival time, dose: 3.12 mg/kg/injection, schedule: Q01DX009 (ip), vehicle: saline with Tween-80); 138 % of control (T/C endpoint: mean survival time, dose: 3.13 mg/kg/injection, schedule: Q01DX009 (ip), vehicle: saline with Tween-80); 108, 116, 123, 125, 148 % of control (T/C endpoint: mean survival time, dose: 6.25 mg/kg/injection, schedule: Q01DX009 (ip), vehicle: saline with Tween-80); 131 % of control (T/C endpoint: mean survival time, dose: 10.0 mg/kg/injection, schedule: Q01DX009 (ip), vehicle: saline); 119, 120, 124, 132 % of control (T/C endpoint: mean survival time, dose: 12.5 mg/kg/injection, schedule: Q01DX009 (ip), vehicle: saline with Tween-80); 146, 153 [5 of 6 alive], 154, 176 % of control (T/C endpoint: mean survival time, dose: 25.0 mg/kg/injection, schedule: Q01DX009 (ip), vehicle: saline with Tween-80). In addition, the T/C under setting [2] is 198 and 250 % of control; the T/C (T/C endpoint: median survival time, dose: 20.0 mg/kg/injection, schedule: Q04DX003 (ip), vehicle: saline with Tween-80) is 126 % of control [6 of 7 alive]. In addition, the survivor count is 0 of 7 (T/C endpoint: mean survival time, dose: 12.0 mg/kg/injection, schedule: Q01DX008 (iv), vehicle: water); 0 of 7 (T/C endpoint: mean survival time, dose: 18.0 mg/kg/injection, schedule: Q01DX008 (iv), vehicle: water); 0 of 6 and 2 of 6 under setting [2]; 0 of 6 and 2 of 3 under setting [3]; 1 of 3 under setting [4].
`CC(C)(C[NH-])C[NH-].[Cl][Pt+2][Cl]`: the T/C (T/C endpoint: median survival time, dose: 0.4 mg/kg/injection, schedule: Q04DX003 (ip), vehicle: water, evaluated on day 30) is 120, 121, 122, 127 % of control; the T/C (T/C endpoint: median survival time, dose: 0.4 mg/kg/injection, schedule: Q04DX003 (ip), vehicle: water, evaluated on day 60) is reported as 126, 130, 136 % of control; the T/C (T/C endpoint: median survival time, dose: 0.8 mg/kg/injection, schedule: Q04DX003 (ip), vehicle: water, evaluated on day 30) is 132, 142, 160, 205 % of control; the T/C (T/C endpoint: median survival time, dose: 0.8 mg/kg/injection, schedule: Q04DX003 (ip), vehicle: water, evaluated on day 60) is recorded as 139, 142, 150 % of control; the T/C (T/C endpoint: median survival time, dose: 1.6 mg/kg/injection, schedule: Q04DX003 (ip), vehicle: water, evaluated on day 30) is on record as 158, 162, 264, 361 % of control; the T/C (T/C endpoint: median survival time, dose: 1.6 mg/kg/injection, schedule: Q04DX003 (ip), vehicle: water, evaluated on day 60) is given as 170, 195, 204 % of control. The T/C (T/C endpoint: median survival time, dose: 3.2 mg/kg/injection, schedule: Q04DX003 (ip), vehicle: water, evaluated on day 30) is 138 and 167 % of control; the T/C (T/C endpoint: median survival time, dose: 3.2 mg/kg/injection, schedule: Q04DX003 (ip), vehicle: water, evaluated on day 60) is 191, 201, 228 % of control; the T/C under setting [5] is 104 % of control. Further, the survivor count was 6 of 6 (T/C endpoint: median survival time, dose: 3.12 mg/kg/injection, schedule: Q04DX003 (ip), vehicle: distilled water + Tween-80); 5 of 6 and 10 of 10 (T/C endpoint: median survival time, dose: 3.2 mg/kg/injection, schedule: Q04DX003 (ip), vehicle: water); 4 of 6 (T/C endpoint: median survival time, dose: 6.25 mg/kg/injection, schedule: Q04DX003 (ip), vehicle: distilled water + Tween-80); 5 of 6, 10 of 10 (2×), 6 of 6 under setting [5]; 0 of 6 (T/C endpoint: median survival time, dose: 12.5 mg/kg/injection, schedule: Q04DX003 (ip), vehicle: distilled water + Tween-80); 0 of 6 (T/C endpoint: median survival time, dose: 25.0 mg/kg/injection, schedule: Q04DX003 (ip), vehicle: distilled water + Tween-80). In addition, the survivor count reads like this: (T/C endpoint: median survival time, dose: 50.0 mg/kg/injection, schedule: Q04DX003 (ip), vehicle: distilled water + Tween-80) 0 of 6; (T/C endpoint: median survival time, dose: 100.0 mg/kg/injection, schedule: Q04DX003 (ip), vehicle: distilled water + Tween-80) 0 of 6; (T/C endpoint: median survival time, dose: 200.0 mg/kg/injection, schedule: Q04DX003 (ip), vehicle: distilled water + Tween-80) 0 of 6.
For `CN(C)C=O`, the survivor count (T/C endpoint: mean survival time, dose: 3200.0 mg/kg/injection, schedule: Q01DX009 (ip), vehicle: saline) is 3 of 6.
Turning to `CC12C(=O)C=CCC1=CCC1C2CCC2(O)C(=O)OC3(C)C4CC5(C)C(COC16OC23C5C6=O)C(=O)O4` (stereo not given), the survivor count (T/C endpoint: median survival time, dose: 400.0 mg/kg/injection, schedule: Q01DX009 (ip), vehicle: Klucel (hydroxypropylcellulose) (HPC)) is 2 of 6.
For the compound `CN=C1C=C/C(=N/N=c2/ccn(O)cc2C)C=C1C`, the survivor count is listed as 3 of 3 (T/C endpoint: mean survival time, dose: 200.0 mg/kg/injection, schedule: Q04DX002 (ip), vehicle: saline with Tween-80) and 0 of 3 (T/C endpoint: mean survival time, dose: 400.0 mg/kg/injection, schedule: Q04DX002 (ip), vehicle: saline with Tween-80).
On to `O/N=C/c1ccc(O)cc1O`, for which the survivor count (T/C endpoint: mean survival time, dose: 400.0 mg/kg/injection, schedule: Q01DX001 (ip), vehicle: saline) is given as 0 of 6.
Regarding `COc1ccc(COc2ccc([N+](=O)[O-])cc2)cc1OC`, for the setting “T/C endpoint: mean survival time, dose: 300.0 mg/kg/injection, schedule: Q04DX002 (ip), vehicle: saline with Tween-80”, the survivor count is on record as 3 of 3.
For `c1cc2c(c(CC3CO3)c1CC1CO1)OCCOCCOCCOCCO2` (stereo not given), the T/C reads like this: (T/C endpoint: median survival time, dose: 6.25 mg/kg/injection, schedule: Q01DX009 (ip), vehicle: saline + alcohol) 132 % of control; (T/C endpoint: median survival time, dose: 50.0 mg/kg/injection, schedule: Q01DX009 (ip), vehicle: saline + alcohol) 132 % of control.
As for `CN(C)CCOc1ccccc1Cc1ccccc1`, the survivor count under setting [1] was 2 of 6.
In the case of `CC#CC(=O)O`, the survivor count is on record as 1 of 3 (T/C endpoint: mean survival time, dose: 200.0 mg/kg/injection, schedule: Q04DX002 (ip), vehicle: saline) and 0 of 3 (T/C endpoint: mean survival time, dose: 400.0 mg/kg/injection, schedule: Q04DX002 (ip), vehicle: saline).
Consider `C[N+](C)(C)CCOC(=O)c1cc(CBr)cc(CBr)c1`, for which the survivor count is 0 of 6 (T/C endpoint: mean survival time, dose: 200.0 mg/kg/injection, schedule: Q04DX003 (ip), vehicle: saline) and 0 of 6 under setting [6].
For the compound `S=c1[n-]c2ccccc2s1.S=c1[n-]c2ccccc2s1.[Cl][Pt+2][Cl]`, the survivor count under setting [1] is recorded as 0 of 4.
Regarding `Nc1cc(Cl)nnc1Cl`, the survivor count under setting [6] was 1 of 6.
For the compound `CC(C)CC(NC(=O)C(C)NC(=O)OCc1ccccc1)C(N)=O` (stereo not given), the survivor count is, setting by setting: under setting [4], 6 of 6; (T/C endpoint: mean survival time, dose: 400.0 mg/kg/injection, schedule: Q01DX009 (ip), vehicle: saline with Tween-80) 6 of 6.
Take `COC1=C(OC)C(=O)C(SCc2ccc(OC)cc2)=CC1=O`: the survivor count is, setting by setting: under setting [2], 0 of 3; under setting [3], 0 of 3; under setting [4], 0 of 3.
Consider `NCCCOCCOCCOCCOCCCN`, for which the survivor count (T/C endpoint: mean survival time, dose: 200.0 mg/kg/injection, schedule: Q01DX001 (ip), vehicle: saline sonified) was 3 of 6 and the survivor count (T/C endpoint: mean survival time, dose: 400.0 mg/kg/injection, schedule: Q01DX001 (ip), vehicle: saline sonified) is recorded as 0 of 6.
For the compound `C/C(=N\NC(N)=O)C(F)(F)F`, the survivor count under setting [1] is 3 of 6.
On to `CCCCCCCCN(C)C`, for which the survivor count under setting [3] was 4 of 6.
As to `[Cl][Pt+2][Cl].[NH-]c1cc(F)ccc1F.[NH-]c1cc(F)ccc1F`, the survivor count is, setting by setting: (T/C endpoint: mean survival time, dose: 100.0 mg/kg/injection, schedule: Q04DX003 (ip), vehicle: distilled water + Tween-80) 0 of 6; (T/C endpoint: mean survival time, dose: 200.0 mg/kg/injection, schedule: Q04DX003 (ip), vehicle: distilled water + Tween-80) 0 of 6.
